According to PubChem BioAssay AID588497 (NMMLSC, 2011):
Hit rate of the full screen: of about 360,000 compounds, about 780 (0.22%) were called active. The inconclusive results got no clear call from the source; some entries with a clear call stand among them for comparison. No stated cut-off is given here; in the data, active means inhibition above about 35% (passing the limit was not always enough); inconclusive means no clear call, values can overlap the other calls.

System: Botulinum neurotoxin type F light chain protease (Clostridium botulinum)
Test: BoNT/F light chain protease inhibitors, primary screen, biochemical, flow cytometry, MLPCN library (AID 588497); further: plate controls were buffer without enzyme for full effect and enzyme alone for no effect
Conditions: Multiplex microsphere protease cleavage assay, at 10 µM, active compounds read high

Structure (SMILES)	inhibition
CC(C)(C)C(=O)OCc1nc(-c2ccc(C(F)(F)F)cc2)cs1	inconclusive: 108%
CC(=O)c1ccc(N2CCN(C(=O)CN3C(=O)NC4(CCCCC4)C3=O)CC2)c(F)c1	inactive: -7%
CC(=O)Nc1ccc(S(=O)(=O)NNC(=O)c2ccc([N+](=O)[O-])cc2)cc1	inconclusive: -10.4%
Cc1ccc(S(=O)(=O)N2Cc3ccccc3CC2C(=O)NC(C)(C)C)cc1 (stereo not drawn)	inconclusive: -1.3%
COc1cc(OC)cc(C(=O)NC(c2ccccc2)c2ccccc2)c1	inconclusive: -23.2%
CC1CCCN(C(=O)Cc2cccc3ccccc23)C1 (stereo not drawn)	inconclusive: 5.4%
Cc1ccc(S(=O)(=O)N2CCCOC2CNC(=O)C(=O)NCCc2ccco2)cc1 (stereo not drawn)	inactive: -3.5%
Cc1c(C(=O)N2CCCC2)sc(NC(=O)c2ccccc2)c1C#N	inactive: -2.4%
CC1=NN(C(N)=S)C(C)(C)C1	inconclusive: -38.9%
CCCc1nc2sc(C(=O)OCC)c(N)c2c2c1COC(C)(C)C2	inactive: -15.9%
CN1CCN(CC#CCC(O)(c2ccccc2)c2ccccc2)CC1	inconclusive: -10.4%
O=[N+]([O-])c1ccc(Cl)c(/C=N/N2CCN(Cc3ccccc3Cl)CC2)c1	inactive: 1.4%
CC(C)(C)NS(=O)(=O)c1cc(C(=O)O)ccc1Cl	inactive: -2.4%
CCc1ccc(OCC(O)CN2CCN(c3ccc(OC)cc3)CC2)cc1 (stereo not drawn)	inconclusive: -19.1%
Cc1c(S(=O)(=O)N(C)C2CCCCC2)c(=O)n(C)c(=O)n1C	inconclusive: -8.8%
CCc1ccc[n+](-c2[nH]c(=O)sc2/C=N/N=C(\[O-])CCn2c3ccccc3c3ccccc32)c1	inconclusive: 2.2%
O=C(Oc1cc(=O)oc2c1c(=O)n1c3c(cccc23)CC1)c1ccc(F)cc1	inconclusive: -41.5%
CC1CCN(Cc2cc(=O)oc3ccc4ccccc4c23)CC1	inconclusive: 77.1%
C/C(=N\NC(=O)c1nnn(-c2nonc2N)c1CSc1ccccc1)c1cccnc1	inactive: -2.2%
O=c1c2ccccc2oc2ccc(NCCCN3CCOCC3)cc12	inactive: 0.8%
CC(C)CC1NC(C(=O)O)Cc2c1[nH]c1ccccc21 (stereo not drawn)	inconclusive: 19.1%
CCOc1ncccc1C(=O)NCCCSc1ccccc1	inconclusive: 4%
COCC(C)NC(=O)c1ccc2nc(-c3ccccc3)c(-c3ccccc3)nc2c1 (stereo not drawn)	inconclusive: 20.3%
CC(C)(C)CN1CCN(CC#Cc2ccccc2)CC1CCO (stereo not drawn)	inconclusive: 48.6%

Structure (SMILES)	inhibition
C=CCN1C(=O)/C(=C2/Sc3ccccc3N2CC)SC1=S	inconclusive: 22.5%
CC(C)OP(=O)(Oc1ccc(C(O)C(Cl)(Cl)Cl)cc1)OC(C)C (stereo not drawn)	inconclusive: 5.7%
O=C(c1ccco1)C(O)c1ccco1 (stereo not drawn)	inconclusive: 5.4%
CC(OC(=O)Cn1[nH]c(=O)c2ccccc2c1=O)C(=O)Nc1ccc(F)cc1 (stereo not drawn)	inconclusive: -1.9%
CC(Sc1ccc(S(=O)(=O)N2CCCCC2)cn1)C(N)=O (stereo not drawn)	inactive: -0.5%
O=c1[nH]cnc(O)c1C(c1ccc(F)cc1)c1c(O)nc[nH]c1=O	inconclusive: 0.2%
Cc1cccc(C(=O)Nc2ccc(C(=O)c3ccccc3)cc2)c1	inconclusive: -79.3%
O=C1C2C3C=CC(CC3)C2C(=O)N1c1ccc(Cl)cc1Cl (stereo not drawn)	active: 60.3%
Cc1ccc(C(=O)c2coc3ccc(O)c(CN(C)C)c23)cc1	inconclusive: -43.2%
O=C(Cn1cccc(C(F)(F)F)c1=O)c1ccc(Cl)cc1	inconclusive: -46.2%
C=C1C(=O)C23CCC4C(C)(C(=O)OC)CCCC4(C)C2CCC1(O)C3 (stereo not drawn)	inactive: -4.1%
CCOC(=O)/C(C#N)=C/Nc1ccsc1C(=O)OC	inconclusive: -33.8%
CCCCn1c(C)cc2cc(O)ccc21	inconclusive: -66.9%
O=c1nc(N2CCCCC2)nc2n1CCO2	inactive: 5.2%
CCOC(=O)Cc1cc(=O)n2[nH]c(C(C)(C)C)cc2n1	inconclusive: 30.6%
Cc1ccnc(SC2CC(=O)N(c3ccc([N+](=O)[O-])cc3)C2=O)n1 (stereo not drawn)	inconclusive: -4.2%
COc1ccc(CN2CCN(Cc3c[nH]c4ccccc34)CC2CCO)cc1C (stereo not drawn)	inconclusive: 1.4%
Cc1ccc(NC(=S)NCc2ccc(Cl)cc2)c(C)c1	inconclusive: 17.6%
COc1ccccc1-c1noc(COC(=O)c2ccc(Br)o2)n1	inconclusive: 4%
O=[N+]([O-])c1ccc(C[n+]2cccc3ccccc32)cc1	inactive: 2.9%
CNS(=O)(=O)c1ccc(CCC(=O)N2CCOCC2)cc1	inconclusive: 10.6%
Cc1sc2nc(SCc3ccccc3)n(Cc3ccco3)c(=O)c2c1C	inactive: -0.7%
COC(=O)c1sccc1NC(=O)CC1C(=O)NCCN1C(=O)c1ccc(C)c(C)c1 (stereo not drawn)	inconclusive: 35.8%
CCCNC(=O)c1ccccc1NC(=O)c1ccccc1N(C)S(C)(=O)=O	inconclusive: -20%

Structure (SMILES)	inhibition
CCCn1c(SCC(=O)Nc2ccccc2N2CCOCC2)nc2c1c(=O)n(C)c(=O)n2C	inconclusive: -15.8%
COCCNC(=O)C1(C)CCN(Cc2noc(-c3c(C)noc3C)n2)C1 (stereo not drawn)	inactive: 5.6%
COc1ccc(C(=O)CSc2ncnc3nc[nH]c23)cc1	inconclusive: 35.3%
CC1(C)CC(=O)c2cc(OCC(=O)N3CCN(Cc4ccccc4)CC3)ccc2O1	inactive: -3.1%
CC(C)C(=O)c1cc2c(cc1NC(=O)c1ccccc1)OCCO2	inactive: -2.9%
Cc1cc(NC(=O)c2c(Cl)c(C)nn2C)no1	inconclusive: -22.2%
CCOc1cccc(CN2CCC(CCC(=O)NC3CC3)CC2)c1O	inconclusive: -15.6%
COc1ccc2oc(=O)cc(CN(C)Cc3ccccc3)c2c1	inconclusive: -27.9%
Cc1ccc(S(=O)(=O)n2nc(OC(=O)C(C)(C)C)cc2N)cc1	inconclusive: 0.1%
CC(=O)Nc1ccc2nc(NC(=O)c3ccco3)sc2c1	inconclusive: 6%
COC(=O)Cn1c2ccccc2c2nc3ccccc3nc21	inconclusive: -17.1%
COc1ccccc1Nc1nc(N)nc(CN2CCN(Cc3ccc4c(c3)OCO4)CC2)n1	inconclusive: 56%
CCc1nc(SCC(=O)NCCc2ccccc2)n[nH]1	active: 35.3%
O=C(Nc1nccs1)c1ccc2ccccc2c1	inconclusive: -3.8%
CCOc1ccc(NC(=O)CC(Cc2cc(C)cc(C)c2)C(=O)O)cc1 (stereo not drawn)	inconclusive: -2.9%
Cc1ccc(NC(=O)C2CCCN(S(=O)(=O)c3c(C)noc3C)C2)c(Br)c1 (stereo not drawn)	inactive: -3.3%
O=C(NCc1cccs1)Nc1ccc2c(c1)OCO2	inactive: -12.5%
FC(F)(F)c1cc(Oc2ccccc2)ncc1-c1nnc(-c2ccccc2Cl)o1	inconclusive: -95.6%
CC(C)Cc1nc2ccccc2n1CCc1ccccc1	inactive: -3.1%
CCn1nnnc1-c1ccc(OC)c(S(=O)(=O)Nc2ccc(C)c(C)c2)c1	inactive: -27.8%
COC(=O)c1ccc(S(=O)(=O)N2CCCN(Cc3cccc(Br)c3F)CC2)n1C	inconclusive: -16.7%
CC(C)CC(=O)Nc1cccc(-c2nc3ncccc3o2)c1	inactive: 24.8%
CCOC(=O)C1C(=O)NC(SC)=C(C#N)C1c1ccccc1F (stereo not drawn)	inactive: 0.9%
CCCN1C(=O)C2(SC(NC(C)=O)=NN2C(C)=O)c2cc(C)cc(C)c21 (stereo not drawn)	inconclusive: -9.2%

A different layout for some results above:
Structure (SMILES),inhibition
O=C(Oc1cc(=O)oc2c1c(=O)n1c3c(cccc23)CC1)c1ccc(F)cc1,inconclusive: -41.5%
CC1CCN(Cc2cc(=O)oc3ccc4ccccc4c23)CC1,inconclusive: 77.1%
Cc1ccc(NC(=S)NCc2ccc(Cl)cc2)c(C)c1,inconclusive: 17.6%
COCCNC(=O)C1(C)CCN(Cc2noc(-c3c(C)noc3C)n2)C1 (stereo not drawn),inactive: 5.6%
Cc1ccc(S(=O)(=O)n2nc(OC(=O)C(C)(C)C)cc2N)cc1,inconclusive: 0.1%
COC(=O)Cn1c2ccccc2c2nc3ccccc3nc21,inconclusive: -17.1%

More entries:

Structure (SMILES)	inhibition
Cc1ccccc1/C=C1\SC(=S)N(/N=C/c2cc([N+](=O)[O-])ccc2O)C1=O	inactive: 0.7%
Cc1ccc(N2CC(NS(=O)(=O)c3cc(F)ccc3F)CC2=O)cc1C (stereo not drawn)	inconclusive: 0.4%
Cc1ccc(C)c(S(=O)(=O)NCC(=O)N2CCCC2)c1	inconclusive: 6.2%
COc1cccc(C(C#N)NCCCNC(C#N)c2cccc(OC)c2OC)c1OC (stereo not drawn)	inactive: -2.9%
CNc1nc2cccnc2s1	inconclusive: 17.2%
O=c1[nH]c(=S)c2ncn(-c3ccccc3)c2[nH]1	inconclusive: 10.7%
Cc1ccc(-c2csc(NC(=O)c3ccccc3F)c2C(=O)O)cc1	active: 35%
CCOc1ccc(OCCOCCNCCOC)cc1	active: 41.3%
COc1ccc(NC(=S)N2CCN(c3ncccn3)CC2)c(OC)c1	inconclusive: -56.4%
N#Cc1ccc(S(=O)(=O)NC2CCCCNC2=O)cc1 (stereo not drawn)	active: 42%
Cc1ccccc1OCC(=O)N(Cc1ccco1)c1c(N)n(Cc2ccccc2)c(=O)[nH]c1=O	inactive: -3.7%
CN(CC(=O)Nc1ccccc1C(F)(F)F)C(=O)c1ccc2c(=O)n3c(nc2c1)CCC3	inconclusive: 3.9%
Cc1cc(C)nc(N2CCN(c3ccc(F)cc3)CC2)n1	inconclusive: -34.6%
O=C(NCCc1c[nH]c2ccccc12)OC1CC2CC1[C@H]1CCCCN1C2=O (stereo partly drawn)	inactive: -8%
COc1cccc(C(=O)NCC2CCCN(C3CCCCC3)C2)c1OC (stereo not drawn)	inconclusive: -2.4%
N#Cc1cnc(SCC(=O)N2CCCCC2)nc1N	inconclusive: 10.5%
O=C(C[n+]1ccc2c(c1)nnn2-c1ccccc1)c1ccc(Cl)cc1	inconclusive: -129%
CCCc1cc(NCc2ccccn2)n2c(nc3ccccc32)c1C#N	inactive: -1.2%
C[n+]1ccn(CC(=O)c2cccs2)c1	inconclusive: -15.5%
COc1ccc(C2C(C(=O)N3CCCC3)c3cc(OC)c(OC)cc3C(=O)N2C)cc1OC (stereo not drawn)	inactive: -3.4%
O=C(Nc1ccccc1C(=O)Nc1nnc(C(F)(F)F)s1)c1ccccc1	inconclusive: -30%
